Results on three substances are retold here after paper PMC8194061.

Chains of the proteins cited; added tags and fusions are not shown.
UniProt Q05BC3: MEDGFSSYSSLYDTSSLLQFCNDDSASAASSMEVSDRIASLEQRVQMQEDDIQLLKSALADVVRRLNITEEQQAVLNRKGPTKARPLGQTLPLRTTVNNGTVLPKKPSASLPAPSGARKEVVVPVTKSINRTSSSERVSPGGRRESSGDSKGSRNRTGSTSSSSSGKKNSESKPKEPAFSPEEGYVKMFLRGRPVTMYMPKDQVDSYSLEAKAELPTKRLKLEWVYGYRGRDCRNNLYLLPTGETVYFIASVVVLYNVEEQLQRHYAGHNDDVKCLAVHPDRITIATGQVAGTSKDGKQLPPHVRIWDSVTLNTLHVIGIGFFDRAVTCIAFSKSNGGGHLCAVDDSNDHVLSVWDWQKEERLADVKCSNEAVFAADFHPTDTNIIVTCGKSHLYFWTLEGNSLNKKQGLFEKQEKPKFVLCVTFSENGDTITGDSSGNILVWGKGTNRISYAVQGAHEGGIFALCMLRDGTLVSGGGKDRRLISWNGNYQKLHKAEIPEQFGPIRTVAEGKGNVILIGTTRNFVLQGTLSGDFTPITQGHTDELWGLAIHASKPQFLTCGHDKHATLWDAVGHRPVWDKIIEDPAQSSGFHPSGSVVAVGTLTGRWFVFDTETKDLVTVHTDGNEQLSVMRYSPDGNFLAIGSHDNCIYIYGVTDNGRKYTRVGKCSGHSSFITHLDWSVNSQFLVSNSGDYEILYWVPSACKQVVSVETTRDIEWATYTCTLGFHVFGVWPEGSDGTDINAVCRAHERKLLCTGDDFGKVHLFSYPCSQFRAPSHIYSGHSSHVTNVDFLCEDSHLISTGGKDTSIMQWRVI
UniProt P60953: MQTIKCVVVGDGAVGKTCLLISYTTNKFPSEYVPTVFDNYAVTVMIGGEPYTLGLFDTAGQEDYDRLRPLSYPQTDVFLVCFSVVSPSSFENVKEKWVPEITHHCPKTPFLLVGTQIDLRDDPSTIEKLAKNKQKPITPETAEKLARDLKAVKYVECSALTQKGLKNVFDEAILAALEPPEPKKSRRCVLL
UniProt Q9Y266: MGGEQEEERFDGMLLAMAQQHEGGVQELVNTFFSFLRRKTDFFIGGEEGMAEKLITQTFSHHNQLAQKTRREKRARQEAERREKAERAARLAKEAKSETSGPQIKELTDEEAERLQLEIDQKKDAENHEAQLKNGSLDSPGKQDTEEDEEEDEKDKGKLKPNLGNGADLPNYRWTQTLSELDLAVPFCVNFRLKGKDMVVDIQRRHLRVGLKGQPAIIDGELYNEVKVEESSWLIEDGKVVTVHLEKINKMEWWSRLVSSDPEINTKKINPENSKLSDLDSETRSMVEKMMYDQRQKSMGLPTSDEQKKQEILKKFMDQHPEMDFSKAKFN
UniProt P07437: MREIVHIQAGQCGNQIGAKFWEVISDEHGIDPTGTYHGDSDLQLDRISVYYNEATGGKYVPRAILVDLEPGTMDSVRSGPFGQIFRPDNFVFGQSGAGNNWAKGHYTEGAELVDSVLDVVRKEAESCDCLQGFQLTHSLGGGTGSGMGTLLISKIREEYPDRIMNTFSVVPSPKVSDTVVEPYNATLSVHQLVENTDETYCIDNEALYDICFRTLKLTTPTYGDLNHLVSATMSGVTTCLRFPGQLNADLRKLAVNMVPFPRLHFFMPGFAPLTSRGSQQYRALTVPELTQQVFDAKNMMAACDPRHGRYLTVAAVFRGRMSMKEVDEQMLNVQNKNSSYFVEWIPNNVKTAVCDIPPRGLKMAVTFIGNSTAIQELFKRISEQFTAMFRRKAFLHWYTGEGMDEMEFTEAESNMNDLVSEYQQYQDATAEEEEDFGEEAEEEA

The test has as its target EML1-3DDK fusion protein (echinoderm microtubule associated protein like 1, mouse) (mouse) (UniProt Q05BC3). Description: affinity purification with mass spectrometry; IP of EML1-3DDK from lysate of transfected HEK293 cells with anti-FLAG (DDK) M2 antibody (Pierce Crosslink Immunoprecipitation Kit); IP products of two independent experiments resolved on 10% SDS-PAGE, in-gel trypsin digestion, LC-ESI-MS/MS, search against the human UniProt database.

These are yes or no findings as the source states them, for the method shown. Binding seen in cells or lysates may run through a third protein. A yes stands for co-enrichment or nearness to the bait. Other partners may have been found.

“CDC42 (actin polymerization regulator) (from UniProt P60953 1-191)”: the binding entry is reported as “binds”.
In the case of “NUDC (nuclear distribution C), found in the EML1-IP product (from UniProt Q9Y266 1-331)”, the binding result is given as “binds”.
As for “TUBB (tubulin protein) (from UniProt P07437 1-444)”, the entry is “binds”.
